Results are given in words; binding and its absence hold for the method and conditions named. In cells and extracts the contact can be indirect. Some results given as binding are weak or reduced against the parent protein; the word gives no strength.
Experiments:
[1] = biological target: µ opioid receptor fused to sYFP2 (MOR-sYFP2) (rat) (UniProt P33535); assay: FRET or BRET
MOR-H297A mutant (rat) = MOR-H297A mutant (rat) (UniProt P33535); assay: FRET or BRET

Chains of the proteins cited; added tags and fusions are not shown. Lines headed by an entry give the natural chain unless they say otherwise; changes in a name come on top.
UniProt P25098, whole entry: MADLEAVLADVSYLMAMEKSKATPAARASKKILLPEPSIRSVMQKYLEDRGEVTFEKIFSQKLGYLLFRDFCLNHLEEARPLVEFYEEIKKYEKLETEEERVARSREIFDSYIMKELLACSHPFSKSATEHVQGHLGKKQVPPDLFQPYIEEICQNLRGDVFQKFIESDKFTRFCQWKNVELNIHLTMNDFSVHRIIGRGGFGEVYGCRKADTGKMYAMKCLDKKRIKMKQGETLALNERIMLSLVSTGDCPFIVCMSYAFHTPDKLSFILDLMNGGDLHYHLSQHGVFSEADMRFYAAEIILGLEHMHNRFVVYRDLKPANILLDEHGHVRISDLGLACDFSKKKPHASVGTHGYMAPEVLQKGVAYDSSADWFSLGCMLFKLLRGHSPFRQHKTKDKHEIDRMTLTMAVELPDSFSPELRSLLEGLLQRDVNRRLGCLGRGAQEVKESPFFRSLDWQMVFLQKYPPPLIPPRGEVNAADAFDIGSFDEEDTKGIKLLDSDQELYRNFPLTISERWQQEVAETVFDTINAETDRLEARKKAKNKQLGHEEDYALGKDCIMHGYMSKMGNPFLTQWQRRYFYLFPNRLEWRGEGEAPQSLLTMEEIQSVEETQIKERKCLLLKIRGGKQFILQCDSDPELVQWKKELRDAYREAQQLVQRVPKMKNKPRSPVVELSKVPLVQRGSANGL

- binding [1]: binds
- binding (MOR-H297A mutant (rat)): binds
Substance: GRK2-mTur2 (from UniProt P25098 1-689) (enzyme)

— doi:10.1101/2021.12.02.470941
